{"source": "patent US20220356186A1", "about": "“PERK INHIBITING PYRROLOPYRIMIDINE COMPOUNDS” (HiberCell, Inc., priority 2019, published 2022)", "key": {"[1]": {"test_system": "GFP-eIF2α in HEK293 cells", "test": "PERK cellular assay, TR-FRET in HEK293-EGFP-eIF2a cells after tunicamycin-induced ER stress", "assay_type": "cell-based", "settings": "statement in words", "experimental": "Stable cell lines were created in HEK293 cells using lentiviral particles harboring an expression vector for GFP-eIF2α. Cells were selected using puromycin and enriched using fluorescence activated cell sorting against GFP. HEK293-EGFP-eIF2a cells were plated at 5000 cells/well in 384-well assay plates and incubated overnight at 37° C., 5% CO2. Inhibitor compounds were added to the wells by Echo acoustic dispensing and incubated for 30 minutes at 37° C., 5% CO2 prior to induction of ER stress by addition of tunicamycin to […] for 2 hours. Cells were lysed and TR-FRET was measured in an EnVision plate reader (PerkinElmer). FRET ratio data was normalized to signal from lysates treated with DMSO vehicle control and plotted as percent inhibition against 10-point; 3-fold dilution series of inhibitors. IC50 values were calculated using 4-parameter logistical fitting in XLFit."}, "[2]": {"target": "T1, EIF2AK3 (PERK) catalytic domain (amino acids 536-1116) (Homo sapiens, UniProt Q9NZJ5)", "T1 construct": "EIF2AK3 (PERK) catalytic domain (amino acids 536-1116)", "T1 sequence (Q9NZJ5 536-1116)": "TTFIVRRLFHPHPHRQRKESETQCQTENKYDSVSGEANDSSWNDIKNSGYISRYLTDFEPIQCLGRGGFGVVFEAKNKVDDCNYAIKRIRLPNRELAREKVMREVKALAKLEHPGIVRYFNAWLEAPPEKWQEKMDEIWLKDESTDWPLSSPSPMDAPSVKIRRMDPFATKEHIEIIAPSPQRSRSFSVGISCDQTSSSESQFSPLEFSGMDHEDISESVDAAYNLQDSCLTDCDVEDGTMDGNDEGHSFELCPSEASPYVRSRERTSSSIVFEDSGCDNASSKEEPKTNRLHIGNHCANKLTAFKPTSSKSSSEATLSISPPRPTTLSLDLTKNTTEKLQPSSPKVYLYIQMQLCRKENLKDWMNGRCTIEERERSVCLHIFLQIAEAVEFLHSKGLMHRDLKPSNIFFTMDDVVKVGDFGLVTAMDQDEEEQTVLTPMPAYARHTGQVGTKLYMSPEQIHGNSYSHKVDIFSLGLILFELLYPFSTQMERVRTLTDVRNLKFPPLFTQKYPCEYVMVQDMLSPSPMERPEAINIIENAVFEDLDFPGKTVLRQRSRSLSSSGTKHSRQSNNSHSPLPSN", "test": "PERK in vitro activity assay (isolated), TR-FRET kinase assay", "assay_type": "biochemical", "settings": "statement in words", "text": "PERK In Vitro Activity Assay (Isolated):\nIn vitro Inhibition of PERK Enzyme Activity (isolated) Recombinant human EIF2AK2 (PKR) catalytic domain (amino acids 252-551), EIF2AK3 (PERK) catalytic domain (amino acids 536-1116), GFP-eIF2a substrate, and Terbium-labelled phospho-eIF2a antibody is obtained (Invitrogen, Carlsbad, Calif.).\nExpress and purify HIS-SUMO-GCN2 catalytic domain (amino acids 584-1019) from E. coli. Perform TR-FRET kinase assays in the absence or presence of inhibitors in a reaction buffer consisting of 50 mM HEPES, pH 7.5, 10 mM MgCb, 1.0 mM EGTA, and 0.01% Brij-35, and 100-200 nM GFP-eIF2a substrate. […] Add test compound, initiate the reaction by addition of enzyme, and incubate at room temperature for 45 minutes. Stop the reaction by addition of EDTA to a final concentration of 10 mM, add Terbium-labelled phospho-eIF2a antibody at a final concentration of 2 nM, and incubate for 90 minutes. Monitor the resulting fluorescence in an EnVison® Multilabel reader (PerkinElmer, Waltham, Mass.). Determine TR-FRET ratios and the resulting IC50 values using a 4-parameter nonlinear logistic equation as shown: Y=(A+((B−A)/(1+((C/x)[…])))) where, Y=% specific inhibition, A=Bottom of the curve, B=Top of the curve, C=absolute IC50 (concentration causing 50% inhibition), and D=hill slope."}}, "note": "Some of these results come from one statement about several compounds together."}
{"smiles": "Cc1cc(NC(=O)Oc2ccccc2)ccc1-c1cn(C)c2ncnc(N)c12", "note": "[Example 169, phenyl (4-(4-amino-7-methyl-7H-pyrrolo[2,3-d]pyrimidin-5-yl)-3-methylphenyl)carbamate]", "values": [{"measurement": "Inhibition of EIF2a in vitro (cellular)", "setting": "[1]", "result": "inhibit EIF2a in vitro"}, {"measurement": "Inhibition of isolated PERK enzyme activity in vitro", "setting": "[2]", "result": "inhibit isolated PERK enzyme activity in vitro"}]}
